From PubChem BioAssay AID2685 (National Center for Advancing Translational Sciences (NCATS), 2010)
The other results are listed elsewhere or left out. Further columns of the screen follow, without active or inactive calls. Most of these compounds were active or inconclusive in the main read-out, so they are no random draw. Words in brackets tell the shape of the fitted curve; partial curves, single points and poor fits give uncertain potencies.

Experiment: qHTS Assay for Lipid Storage Modulators in Drosophila S3 Cells;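 as to cell number change: cells counted by Cell Tracker Red CMTPX staining in the red channel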
Details: BODIPY lipid droplet fluorescence, 18-24 h; for cell number change: measured here: cell count max response, cells fed with added oleic acid
Outline: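 Drosophila S3 cells got compounds at several concentrations plus oleic acid (400 uM solution). Laser-scanning cytometry with 488 nm excitation read lipid droplets at 500-530 nm and cells at 575-640 nm. Percent activity was relative to 20 uM Triacsin C.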

[1] = measured here: lipid fluorescence (Fed channel) AC50, cells fed with added oleic acid
[2] = measured here: cell number channel AC50, cells fed with added oleic acid

## Cc1c(NC(=O)Nc2ccccc2Cl)sc(=S)n1C
  cell number change: -1.54%
[1]
  AC50: 11.6 µM [rising, partial curve]

## Cc1sc2ncnc(Oc3ccc(-n4ccnc4)cc3)c2c1C
  cell number change: -11.2%
[1]
  AC50: 4.11 µM [rising, full curve]

## O=C(Nc1ccc(Cn2ccnc2)cc1)c1cccc(C(F)(F)F)c1
  cell number change: -22.3%
[1]
  AC50: 6.51 µM [rising, single point]

## CCOC(=O)C1CCCN(C(=O)CSc2nccn2C)C1 (stereo not drawn)
  cell number change: 0.852%
[1]
  AC50: 0.58 µM [falling, single point]

## C=C1CCc2c([nH]c3ccc(OCC(C)C)cc23)C1=O
  cell number change: -49.6%
[2]
  AC50: 10.3 µM [falling, partial curve]
[1]
  AC50: 8.2 µM [falling, partial curve]

## CCN(CC)CCN1C(=O)c2oc3ccccc3c(=O)c2C1c1cccc(Br)c1 (stereo not drawn)
  cell number change: -3.17%
[1]
  AC50: 29.1 µM [rising, single point]

## CCOC(=O)Cc1csc(NC(=O)c2c(-c3c(F)cccc3Cl)noc2C)n1
  cell number change: 5.61%
[1]
  AC50: 6.51 µM [rising, single point]

## COc1ccccc1/C=C/CN1CC(C)OC(C)C1 (stereo not drawn)
  cell number change: 10%
[1]
  AC50: 14.6 µM [rising, single point]

## C=CCNc1nc(Cl)nc(NC2CCCCC2)n1
  cell number change: 14.7%
[1]
  AC50: 0.58 µM [rising, single point]

## O=C(/C=C/c1ccc(Cl)cc1)Nc1ccc(N2CCCCC2)cc1
[1]
  AC50: 0.651 µM [falling, single point]

## Cc1c(NC(=O)c2cc(-c3ccc4c(c3)OCO4)on2)c(=O)n(-c2ccccc2)n1C
  cell number change: -0.703%
[1]
  AC50: 25.9 µM [falling, single point]

## O=S(=O)(NCC(O)c1ccccc1)c1ccc(-c2ccccn2)s1 (stereo not drawn)
  cell number change: -52.6%
[2]
  AC50: 29.1 µM [falling, single point]
[1]
  AC50: 29.1 µM [falling, single point]

## O=C(Nc1ccc(C(F)(F)F)cc1)c1csc(-c2ccncc2)n1
  cell number change: 8.25%
[1]
  AC50: 0.0103 µM [rising, full curve, poor fit]

## Cc1ccc(-c2nnc3sc(C4COc5ccccc5O4)nn23)cc1 (stereo not drawn)
  cell number change: 1.83%
[1]
  AC50: 18.4 µM [falling, single point]

## O=C(N/C(=C/c1cn(-c2ccccc2)nc1-c1ccccc1)C(=O)N1CCOCC1)c1ccc(Cl)cc1Cl
[1]
  AC50: 1.03 µM [rising, full curve]

## Cc1ccc(-c2nnc(-c3ccccc3Br)o2)cc1
  cell number change: 14.6%

## CCOC(=O)CCC(=O)N1CCOCCOCCN(C(=O)CCC(=O)OCC)CCOCCOCC1
  cell number change: 18.6%
[1]
  AC50: 0.58 µM [falling, single point]

## CSCCC(NC(=O)c1ccccc1Cl)C(=O)N1CCCCC1 (stereo not drawn)
  cell number change: 22.6%
[1]
  AC50: 6.51 µM [rising, partial curve]

## COC(=O)c1ccccc1NC(=O)c1nc2nc(C)cc(C(F)F)n2n1
  cell number change: 8.79%
[1]
  AC50: 0.82 µM [rising, full curve]

## O=C(Nc1cccc2ncccc12)c1cccc(Br)c1
  cell number change: 9.01%

## Cc1cccc(C(=O)NCCNC(=O)c2ccccn2)c1
[2]
  AC50: 6.51 µM [rising, single point]

## C[C@H](NC(=O)OC(C)(C)C)c1nnc(SCC(=O)Nc2cccc(Cl)c2)o1
  cell number change: -16.1%
[1]
  AC50: 0.103 µM [falling, full curve, poor fit]

## CC(=O)Nc1ccc(OC(F)(F)C(F)C(F)(F)F)c(NC(C)=O)c1 (stereo not drawn)
  cell number change: 21.2%
[1]
  AC50: 6.51 µM [rising, single point]

## Cc1ccc(C)c(NS(=O)(=O)c2cc(C(=O)NCc3ccco3)ccc2C)c1
  cell number change: 11.1%
[1]
  AC50: 0.366 µM [rising, full curve]

## O=C(NCCCN1CCCCC1)c1ccc2c(c1)NC(=O)C(N1CCCCC1)S2 (stereo not drawn)
  cell number change: -1.39%
[2]
  AC50: 3.66 µM [falling, single point]

## CCOc1ccc(NC(=O)CN2C(=O)CSc3ccc(S(=O)(=O)N4CCOCC4)cc32)cc1
  cell number change: 7.91%
[1]
  AC50: 6.51 µM [rising, single point]

## CC1C[N+](=C2C=C(N3CCOCC3)CC(C)(C)C2)CC(C)O1 (stereo not drawn)
  cell number change: 0.0823%
[1]
  AC50: 0.731 µM [falling, partial curve, poor fit]

## O=C1CCC(=O)N1OCCCOc1ccc2c(c1)CCC2
  cell number change: 15.8%
[1]
  AC50: 16.4 µM [rising, single point]

## N#Cc1c(NC(=O)c2ccc([N+](=O)[O-])o2)sc2c1CCC2
  cell number change: 3.42%

## CN(CCC#N)C(=S)Nc1ccc(Oc2ccccc2)cc1
  cell number change: -26.8%
[1]
  AC50: 5.8 µM [rising, single point]

## O=C(c1cc(-c2cccs2)on1)N1CCN(C(c2ccccc2)c2ccccc2)CC1
  cell number change: -10.7%

## COc1ccc(NC(=O)CCS(=O)(=O)c2ccccc2Cl)cc1S(=O)(=O)Nc1ccc(Cl)cc1
  cell number change: -5.41%
[2]
  AC50: 2.06 µM [falling, partial curve, poor fit]

## COC(=O)c1c(CSc2ccc(Cl)cc2)noc1C(=O)NCc1ccco1
  cell number change: -13.5%

## O=C(O)/C=C/C(=O)N1CCN(S(=O)(=O)c2cccc(C(F)(F)F)c2)CC1
  cell number change: 5.54%
[2]
  AC50: 1.16 µM [falling, single point]
[1]
  AC50: 1.16 µM [falling, single point]

## Cc1ccc(OCCn2ccnc2)c([N+](=O)[O-])c1
  cell number change: -1.31%

## N#CC1=C(Nc2ccccc2)SC=C(c2ccccc2)N=C1N1CCOCC1
  cell number change: 132%
[2]
  AC50: 9.2 µM [rising, partial curve]
[1]
  AC50: 6.51 µM [rising, partial curve]

## CC(C)(C)OC(=O)N[C@H](C(=O)OC(C)(C)C)c1ccc2c(c1)OCO2
  cell number change: 14.3%

## COc1ccc(-c2nnc(SCC(=O)NC3CC3)o2)cc1
  cell number change: -4.64%
[1]
  AC50: 23.1 µM [falling, partial curve, poor fit]

## Cc1ccc2c(c1)nnn2C1CCN(S(=O)(=O)c2ccc(C(=O)N3C(C)CCCC3C)cc2)CC1 (stereo not drawn)
  cell number change: -18.3%
[1]
  AC50: 29.1 µM [falling, single point]

## O=C(COC(=O)c1ccccc1SCC(=O)N1CCCC1)Nc1ccccc1OC(F)F
[1]
  AC50: 6.51 µM [rising, partial curve]

## CC(=O)N(/N=C/c1ccc([N+](=O)[O-])o1)c1nc2ccccc2c(=O)n1-c1ccccc1
  cell number change: -37.7%
[2]
  AC50: 0.517 µM [falling, full curve]
[1]
  AC50: 0.651 µM [falling, full curve]

## O=C(c1ccc2c(=O)n(Cc3ccccc3Cl)c(=S)[nH]c2c1)N1CCCC1
  cell number change: -0.943%

## Cc1ccc(C(=O)NNc2c3ccccc3nc3ccccc23)cc1
  cell number change: -39.8%
[2]
  AC50: 4.11 µM [falling, partial curve]
[1]
  AC50: 29.1 µM [falling, single point]

## CCN(CC)C(=O)Cn1cnc2sc(C(=O)Nc3cc(OC)c(OC)c(OC)c3)c(C)c2c1=O
  cell number change: 58.1%
[2]
  AC50: 14.6 µM [rising, partial curve]

## CCCc1cc(=O)n2[nH]c(NCc3ccccc3F)nc2n1
  cell number change: -24.6%
[2]
  AC50: 0.731 µM [falling, full curve]
[1]
  AC50: 5.17 µM [falling, full curve]

## O=c1cc(OCc2ccccc2)cc[nH]1
  cell number change: -40.6%
[2]
  AC50: 16.4 µM [falling, single point]

## CC12CCC(C(N)=O)(C1Br)C2(C)C (stereo not drawn)
  cell number change: 1.79%

## Cc1ccc(CC(=O)N/N=C/c2ccc(OC(=O)c3ccc([N+](=O)[O-])cc3)cc2)cc1
  cell number change: 19.1%
[2]
  AC50: 0.731 µM [falling, single point]
[1]
  AC50: 1.03 µM [falling, single point]

## Cc1ccc(-c2cc(Cc3ccccc3)c(=O)[nH]n2)cc1
  cell number change: 24.5%

## O=C(c1ccc(Br)cc1)N(C1=NCCCCS1)c1ccccc1
  cell number change: 12.5%
[1]
  AC50: 0.0731 µM [falling, full curve, poor fit]

## O=C(NCC(=O)N(c1ccc(Cl)cc1)C(C(=O)NC1CCCC1)c1cccnc1)c1ccco1 (stereo not drawn)
  cell number change: -3.81%
[1]
  AC50: 0.206 µM [rising, single point]

## Cc1cccc(NC(=O)NCC2CC2)c1
  cell number change: 18.6%
[1]
  AC50: 20.6 µM [rising, single point]

## Cc1cc(C[n+]2ccccc2)c2nsnc2c1
  cell number change: -9.59%
[1]
  AC50: 7.31 µM [falling, partial curve, poor fit]

## CCc1nnc(NC(=O)c2sc3nc4c(cc3c2N)CCCCC4)s1
  cell number change: -26%
[1]
  AC50: 25.9 µM [falling, single point]

## COc1ccc(Br)cc1CN1CCN(Cc2c[nH]c3ccccc23)CC1
  cell number change: -21.9%
[1]
  AC50: 29.1 µM [falling, single point]

## CCCOc1ccc(C2C3=C(CCCC3=O)N(CC(=O)O)C3=C2C(=O)CCC3)cc1OCC
  cell number change: 5.11%
[1]
  AC50: 29.1 µM [rising, single point]

## O=C(c1ccc2c(c1)OCO2)C1CCCN(Cc2ccccc2OC(F)F)C1 (stereo not drawn)
  cell number change: 0.99%
[2]
  AC50: 6.51 µM [rising, single point]

## COCCOc1cc(NC(=O)c2cccc(OC)c2)c(Cl)cc1Cl
  cell number change: 30.4%
[2]
  AC50: 29.1 µM [rising, single point]
[1]
  AC50: 29.1 µM [rising, single point]

## O=C(Nc1ccc2c(c1)OCO2)c1cnn2c1NC(c1ccco1)CC2C(F)(F)F (stereo not drawn)
  cell number change: -5.37%
[1]
  AC50: 0.82 µM [rising, partial curve, poor fit]

## Cc1nn(C)c(C)c1C(=O)NN
  cell number change: -21.6%
[1]
  AC50: 29.1 µM [falling, single point]

## COc1ccc(-c2nn(-c3ccccc3)cc2/C=C/C(=O)OCC(=O)Nc2ccccc2C#N)cc1
  cell number change: 74.2%
[2]
  AC50: 20.6 µM [rising, partial curve]
[1]
  AC50: 29.1 µM [rising, single point]
